No constants are given. Whether binding was seen depends on the method and setting. In cells and extracts the contact can be indirect. Some entries that bind do so weakly or less than the wild type. For some assays here: Sequences can lack the tags named with a protein.
Key:
[1] = molecular target: T1, CAPRIN1, endogenous in HEK cells (human (endogenous in HEK293)) (UniProt Q14444); test: co-IP
T1 sequence: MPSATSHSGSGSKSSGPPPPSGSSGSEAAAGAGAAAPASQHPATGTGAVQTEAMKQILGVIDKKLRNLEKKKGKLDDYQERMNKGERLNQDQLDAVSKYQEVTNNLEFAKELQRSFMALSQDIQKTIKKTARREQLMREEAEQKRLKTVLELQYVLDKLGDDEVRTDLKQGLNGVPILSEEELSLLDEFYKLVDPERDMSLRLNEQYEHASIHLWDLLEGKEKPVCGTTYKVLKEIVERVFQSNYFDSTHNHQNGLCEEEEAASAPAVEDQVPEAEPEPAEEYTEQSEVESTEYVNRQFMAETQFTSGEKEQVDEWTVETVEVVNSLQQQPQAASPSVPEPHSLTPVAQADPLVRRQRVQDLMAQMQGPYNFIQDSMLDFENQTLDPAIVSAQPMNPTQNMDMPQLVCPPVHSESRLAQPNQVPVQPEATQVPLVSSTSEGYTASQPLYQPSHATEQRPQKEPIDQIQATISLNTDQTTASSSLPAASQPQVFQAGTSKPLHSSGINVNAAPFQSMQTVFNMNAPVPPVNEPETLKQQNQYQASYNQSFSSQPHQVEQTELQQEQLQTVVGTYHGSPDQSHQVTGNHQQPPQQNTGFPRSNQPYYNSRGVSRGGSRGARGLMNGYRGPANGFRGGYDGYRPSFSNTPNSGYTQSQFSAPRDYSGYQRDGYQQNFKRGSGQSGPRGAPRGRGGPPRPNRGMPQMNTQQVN

[2] = molecular target: T2, Flag-tagged CAPRIN1 (CAPRIN1-Flag/Myc) (UniProt Q14444); test: co-IP
T2 sequence: T1 sequence

Row | Substance | binding [1] | binding [2]
1 | APP695 wild type, stably expressed in HEK293 cells (HEK-APP695^WT) (from UniProt P05067-4 18-695) | binds | 
2 | APP695-HiBiT (wild type APP695 tagged with the small HiBiT tag) (from UniProt P05067-4 18-695) |  | binds
